# From PubChem BioAssay AID504594 (Broad Institute, 2011)
# Where “and” joins values, the source holds several entries; their conditions need not be identical. Identical values can stand only once. Fewer than 10 of roughly 2,000 compounds were called active.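 Rule for the calls: active = growth inhibition of at least 75% in every replicate, which also brings the mean inhibition to 75% or more; inconclusive = mean inhibition 75% or more but some replicate under 75%; inactive = the rest.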 This is one part of the list.
# Experiment: growth inhibition of PfHsp90-dependent yeast, primary screen, antimalarial PfHsp90 inhibitor project, S. cerevisiae, BacTiter-Glo luminescence (AID 504594);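 note: 0% = DMSO neutral control wells and 100% = 20 µM radicicol control wells; higher value means stronger growth inhibition because the sign is flipped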
# Details: S. cerevisiae expressing PfHsp90, BacTiter-Glo growth, 48 h; at 9.4 µM; stronger effect = higher value
row,Structure (SMILES),growth inhibition
1,CC(=O)Nc1ccccc1C(=O)C(=O)Nc1ccccc1,inactive: -9.27%
2,N/C(=N\OC(=O)/C=C/c1ccccc1)c1ccc(Br)cc1,inactive: -17.8%
3,CN(C)CCC(c1ccccc1)c1ccccn1 (centres undefined),inactive: -2.07%
4,Nc1ccc2nc(Cc3ccccc3)[nH]c2c1,inactive: -24.9%
5,CC1(C)C(=O)OC(C(=O)c2ccc(Cl)cc2)C(C)(C)C1=O (centres undefined),inactive: -6.03%
6,O=C(O)CCCCCCNC(=O)c1cncc(O)c1,inactive: -1.83%
7,OCCC1CN(Cc2ccccc2-c2ccco2)CCN1C1CCCC1 (centres undefined),inactive: -5.78%
8,Cc1ccc2c(c1)C(O)(c1c(C)[nH]c3ccccc13)C(=O)N2 (centres undefined),inactive: -6.8%
9,COc1ccccc1C(CC(=O)Nc1ccccc1C)c1ccc(OC(C)C)cc1 (centres undefined),inactive: -19.3%
10,COc1ccc(CCNC(=S)NC(=O)/C=C/c2ccc(C)cc2)cc1OC,inactive: -2.36%
11,O=c1nc2n(c3c1oc1ccccc13)Cc1ccccc1-2,inactive: -0.595%
12,COc1cc(C2C(C(=O)c3ccc(C)o3)=C(O)C(=O)N2Cc2cccnc2)ccc1O (centres undefined),inactive: -7.55%
13,CC(=O)Oc1c2occc2cc2ccc(=O)oc12,inactive: -1.02%
14,O=C1Nc2ccc3sc4ccccc4c3c2C1=O,inactive: -1.28%
15,COc1ccccc1NC(=O)N1CCc2[nH]c3ccc(Cl)cc3c2C1,inactive: -18.9%
16,NC(=O)c1cccnc1,inactive: 12.6%
17,CO/N=C(\C(=O)N[C@@H]1C(=O)N2C(C(=O)O)=C(COC(C)=O)CS[C@H]12)c1csc(N)n1 (stereo in doubt),inactive: -4.72%
18,O=C(O)C1CSC(c2ccc3c(c2)OCO3)N1 (centres undefined),inactive: 2.51%
19,CC12CCCCN1CCCc1c2[nH]c2ccccc12 (centres undefined),inactive: -0.243%
20,Cn1c(=O)c2c(ncn2CC(O)CO)n(C)c1=O (centres undefined),inactive: -8.06%
21,COc1cccc(N2C(=O)CC(c3c[nH]c4ccccc34)C2=O)c1 (centres undefined),inactive: -3.63%
22,N=C1C(c2ccccc2)=C(O)CN1CCCO,inactive: -10.9%
23,COC(=O)CN1CC(=O)N(c2ccccc2)C1=S,inactive: 17.3%
24,CCCCC[C@H](O)/C=C/[C@@H]1[C@@H](CCCCCCC(=O)O)[C@@H](O)C[C@H]1O,inactive: -9.31%
25,O=C(/C=C/Sc1ccccc1)c1ccccc1,inactive: 61.1%

row,Structure (SMILES),growth inhibition
1,C=CCC1(O)C(=O)N2C(=C1C(=O)N1CCOCC1)c1ccccc1CC2(C)C (centres undefined),inactive: 0.738%
2,Cc1c(OC(=O)CNC(=O)OC(C)(C)C)ccc2c3c(c(=O)oc12)CCC3,inactive: -3.7%
3,CCOC(=O)C1=C(C)NC(C)=C(C(=O)OC)C1c1cccc([N+](=O)[O-])c1 (centres undefined),inactive: 2.38%
4,CC(=Nc1ccccc1)C1=C(O)CCCC1=O,inactive: -4.54%
5,O=c1c(C(c2ccccc2)c2c(O)sc3ccccc3c2=O)c(O)sc2ccccc12,inactive: -8.88%
6,CN(CCc1cnn(C)c1)Cc1nc(CC2CC2)no1,inactive: 19.2%
7,Cc1ccc(N2C(=O)c3ccccc3C2=O)cc1C,inactive: -0.638%
8,CCOC(=O)c1ccc2[nH]c(C)c(CCC(C)=O)c(=O)c2c1,inactive: 6.85%
9,O=C(NCCc1c[nH]c2ccccc12)OCCSS(=O)(=O)O,inactive: -7.25%
10,CCn1cc(C(=O)O)c(=O)c2cc(F)c(N3CCNCC3)cc21,inactive: -0.253%
11,Cc1ccc(C(=O)O)cc1NC(=O)c1cccs1,inactive: -2.47%
12,CC1(C)CC(=O)c2cn3c(nc2C1)nc1ccccc13,inactive: -5.82%
13,Cc1ccc(OCCSc2ncccn2)c(C)c1,inactive: -4.3%
14,O=C(Cc1ccccc1[N+](=O)[O-])NCc1ccncc1,inactive: 15%
15,Cc1cc(OCC(=O)C(C)(C)C)c2c(C)c(C)c(=O)oc2c1,inactive: -4.06%
16,CCOC(=O)c1c(O)c2c([nH]c1=O)CCCC2,inactive: -2.33%
17,O=C(N/C(=C/C=C\c1ccccc1)C(=O)N1CCOCC1)c1ccc(Br)cc1,inactive: -2.33%
18,CC(CN1c2ccccc2Sc2ccccc21)N(C)C (centres undefined),inactive: -11.1%
19,COc1ccc(NC(=O)N2CCCCC2c2cccnc2)cc1 (centres undefined),inactive: 24.9%
20,NS(=O)(=O)c1cc2c(cc1C(F)(F)F)NC(Cc1ccccc1)NS2(=O)=O (centres undefined),inactive: 0.054%
21,COc1ccc([C@H]2[C@H](C(=O)OC(C)(C)C)N3N=Cc4ccccc4C3C23C(=O)c2ccccc2C3=O)cc1OC (some centres undefined),inactive: 3.63%
22,COc1cc(C(=S)N(C)C)ccc1O,inactive: -4.93%
23,CCn1c(N2CCN(CC(=O)c3c(C)n(C)c4ccc(OC)cc34)CC2)nc2c1c(=O)[nH]c(=O)n2C,inactive: -0.0085%
24,COc1ccc(C(=O)OCc2cc3cccc(C)c3[nH]c2=O)cc1,inactive: -1.4%
25,COCc1cc(=O)[nH]c(/N=C(\N)Nc2ccc(Oc3ccccc3)cc2)n1,inactive: -12.9%

row,Structure (SMILES),growth inhibition
1,N/C(=N\OC(=O)CCCOc1ccc(Cl)cc1Cl)c1ccncc1,inactive: -2.92%
2,CCOc1cc2c3c(c1)C(C)=CC(C)(C)N3C(=O)C2=O,inactive: -0.287%
3,CC1(C)CC(=O)C(C2=NC(C)(C)Cc3ccccc32)=C(O)C1,inactive: 1.05%
4,O=C1CCCCCN1Cc1ccccc1,inactive: -10.2%
5,Cc1ccc2c(c1)OC(=O)CC2c1ccccc1 (centres undefined),inactive: 16.1%
6,C#CCOc1ccc2c(C)cc(=O)oc2c1,inactive: -0.459%
7,CS(=O)(=O)NCc1ccc(C(=O)NCc2ccccc2)cc1,inactive: -1.7%
8,C/C(=N/N1CCN(Cc2cccc3ccccc23)CC1)c1cccnc1,inactive: 2.11%
9,Cc1cccc(Nc2ncccc2C(=O)O)c1C,inactive: 14.6%
10,COc1cccc(N2C(=O)[C@H]3C(C(=O)c4cnccn4)=NN[C@H]3C2=O)c1,inactive: -1.02%
11,Cc1ccc2c(c1)C1CN(C)CCC1N2S(=O)(=O)c1ccc(Oc2ccc([N+](=O)[O-])cc2)cc1 (centres undefined),inactive: -4.14%
12,COc1ccc(CNC(=O)N[C@H](C(=O)O)C(C)C)cc1OC,inactive: -0.856%
13,CC1(C)CC(CC(=O)Nc2nccs2)(c2ccccc2)CCO1 (centres undefined),inactive: 4.27%
14,CC(=O)c1c[nH]c2ccc(C)cc2c1=O,inactive: -4.93%
15,O=C(NCC1CCCCN1)c1cc(OCC(F)(F)F)ccc1OCC(F)(F)F (centres undefined),inactive: 14.4%
16,CC1CCc2cc(F)cc3c(=O)c(C(=O)O)cn1c23 (centres undefined),inactive: -23.9%
17,COc1cc2ccc(=O)oc2c(O)c1OCC=C(C)C,inactive: 1.02%
18,CCCCOc1ccc(OCCCN2CCOCC2)cc1,inactive: 1.86%
19,COc1ccccc1C(=O)N=C1NC(=O)CC2C(=O)NCCN12 (centres undefined),inactive: 2.95%
20,Cc1ccc(NC(=O)CSc2nc(O)c(Cc3ccccc3)c(=O)n2-c2ccccc2)cc1,inactive: -3.66%
21,COCCCN1C(=O)C(=O)/C(=C(/O)c2ccc3c(c2)CC(C)O3)C1c1cccnc1 (centres undefined),inactive: 5.09%
22,COc1ccc2cc(C(=O)Nc3ccc(S(N)(=O)=O)cc3)sc(=O)c2c1OC,inactive: 5.36%
23,CSc1ccc(CN2CCN(CCC(C)C)C(CCO)C2)cc1 (centres undefined),inactive: -12.6%
24,Cc1nc(N)nc2c1CCCC2,inactive: -5.02%
25,CC[n+]1c(C)sc2cc(C)ccc21,inactive: -1.59%

row,Structure (SMILES),growth inhibition
1,CCc1cc(=O)oc2cc3occ(-c4ccc(OC)c(F)c4)c3cc12,inactive: -4.19%
2,Cc1ccc(SCC(=O)Nc2nccs2)cc1,inactive: -0.344%
3,COc1ccc(CCN(C)Cc2nc(Cc3ccc(OC)c(OC)c3)no2)cc1OC,inactive: 5.09%
4,Nc1nc2c(nc(SCc3ccccc3Br)n2C2OC(CO)C(O)C2O)c(=O)[nH]1 (centres undefined),inactive: -22.3%
5,CC1(C)CC(=O)C(C(=O)CCCCC(=O)C2C(=O)CC(C)(C)CC2=O)C(=O)C1,inactive: 3.6%
6,CCOC(=O)C1C(=O)OC(C)(C)C1C(C)C(=O)c1ccc(C)cc1 (centres undefined),inactive: 23.2%
7,O=C(Cc1cccc2ccccc12)N1CC[C@@]2(O)CCCC[C@H]2C1,inactive: -9.85%
8,CCOC(=O)c1ccccc1NC(=O)c1ccc(F)cc1,inactive: -12.5%
9,OCC(O)CN1CCN(c2ccccc2)CC1 (centres undefined),inactive: 0.412%
10,CC(C)C[C@H](NC(=O)NC(C)C)C(=O)O,inactive: 1.91%
11,CN(C)CCC(c1ccc(Cl)cc1)c1ccccn1 (centres undefined),inactive: -5.62%
12,COc1ccc(-c2coc3cc(O)cc(O)c3c2=O)cc1,inactive: 5.54%
13,COc1ccc(C(=O)c2oc3ccc(Br)cc3c2NC(C)=O)cc1,inactive: -11.3%
14,O=C(CC1(O)C(=O)Nc2ccccc21)c1ccccc1O (centres undefined),inactive: 11.3%
15,COc1ccccc1C1C(C#N)=C(N)Oc2c1oc(CO)cc2=O (centres undefined),inactive: 13.1%
16,Nc1ccc(C(=O)O)c(O)c1,inactive: -0.345% and inactive: -10.6%
17,O=C(O)c1ccccc1Nc1cccc(C(F)(F)F)c1,inactive: -2.14%
18,O=C(NCCc1nc2ccccc2[nH]1)c1cccc(Br)c1,inactive: 2.71%
19,Cc1ccc2c(c1)c(C)cc(=O)n2CCC(=O)O,inactive: -4.29%
20,CC(C)(C)NCC(O)COc1ccccc1C(=O)CCc1ccccc1 (centres undefined),inactive: -4.71%
21,CN(C)CCOC(=O)C(c1ccccc1)C1(O)CCCC1 (centres undefined),inactive: 6.01%
22,C[C@]12CCC3C(CC=C4C[C@@H](O)CC[C@@]43C)C1CCC2[C@]1(C)CCC(=O)O1 (some centres undefined),inactive: 3.64%
23,Nc1[nH]c(=O)ncc1F,inactive: 29.4%
24,CC(C)(C)OC(=O)N1CC(O)CC1C(=O)OCC(=O)c1ccc(Cl)cc1 (centres undefined),inactive: -9.87%
